Measurements from patent US20180289709A1, “METHODS OF TREATING INFLAMMATION” (priority 2010, published 2018).
At least one structure is not confirmed: it was looked up by name or label, or the drawing left a doubt.

Tested on: IRF3
Assay: IRF3 nuclear translocation by confocal microscopy, BMDCs on silicon nanowires
Assay type: cell-based, mouse
Conditions: nanowire-mediated delivery; poly(I:C) 2 h or LPS 45 min; dose-dependent
Procedure: BMDCs were plated on top of etched silicon nanowires (Si NWs) coated with small molecules (Shalek et al., 2010). After 24 hours, cells were stimulated with LPS or poly(I:C), and then fixed in 4% formaldehyde in PBS (RT, 10 min). After fixation, each sample was permeabilized with 0.25% Triton-X 100 in PBS (RT, 10 min), incubated with Image-iT FX Signal Enhancer (RT, 30 min), and then blocked with 10% goat serum and 0.25% Triton-X 100 in PBS (RT, 1 hour). After washing, the samples were placed in 3% IgG-Free BSA & 0.25% Triton-X 100 in PBS that contained primary antibodies against either IRF3 or NF-κB P65 (1:175 dilution) and then rocked overnight at 4° C. The following day, the samples were washed with PBS and then incubated with an Alexa Fluor labeled secondary antibody (1:250 dilution) in 3% IgG-Free BSA & 0.25% Triton-X 100 in PBS (RT, 60 min). After washing with PBS, the samples were counterstained with 300 ng/mL of DAPI in PBS (RT, 30 min). For each experiment, every stimulus-molecule combination was prepared in triplicate. Once fixed, samples were imaged using an upright confocal microscope (Olympus). For each captured image, the nuclear fraction of the fluorescent protein was calculated after identifying nuclear boundaries using DAPI. Finally, distributions for this quantity across different conditions were compared using a one-way ANOVA analysis.

Structure (SMILES): Oc1c2ccccc2c2c3c(cccc13)N=N2 [SP 600125]
- IRF3 nuclear translocation: had no effect
